Results deposited as PubChem BioAssay AID504764 (Drosophila RNAi Screening Center, 2011).

Aim: 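Knock-downs that raise or lower a Notch target reporter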 (primary screen)
Cells: Drosophila Kc167 cells
Knock-down reagent: long dsRNA against Drosophila genes
Duration: about 5 days (4 days dsRNA, then 24 h after transfection)
Treatment: transfection of constitutively active membrane-tethered Notch lacking the extracellular domain, read 24 h later
Measured: 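Light from a Notch-responsive E(spl)m3 luciferase reporter under active Notch, with control-promoter and no-Notch reporter wells to normalise; raw counts from paired wells a and b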
Scale: induced reporter light, run 1, well a and induced reporter light, run 1, well b: higher = more light from the Notch target reporter with active Notch; control promoter light, run 1, well a and control promoter light, run 1, well b: higher = more light from the viral control promoter (cell number, transfection, viability); uninduced reporter light, run 1, well a: higher = more light from the Notch target reporter without active Notch
Active means: 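Hit if the duplicate-averaged log2 ratio of induced to control-promoter light gives a plate-wise z beyond ±2, or induced to uninduced beyond ±1.8; weak-control or discordant-duplicate wells dropped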
Calls: active = modifier hit (raised or lowered Notch signal); inactive = not a hit
The deposit covers about 22,000 reagents; this is an unselected part of those with a known target gene and a result. In the full data, 403 (1.9%) got an active call. 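Unnormalised raw counts per well; ratio z-scores behind the hit calls and whether each hit raises or lowers signal are not deposited.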 Not stated in the record: the amount of reagent.

zetaCOP [DRSC11412]
- induced reporter light, run 1, well a: 19280
- induced reporter light, run 1, well b: 16150
- control promoter light, run 1, well a: 22010
- control promoter light, run 1, well b: 20282
- uninduced reporter light, run 1, well a: 870
- call: inactive

AGBE [DRSC06861]
- induced reporter light, run 1, well a: 1.80e5
- induced reporter light, run 1, well b: 1.91e5
- control promoter light, run 1, well a: 1.83e5
- control promoter light, run 1, well b: 1.92e5
- uninduced reporter light, run 1, well a: 14370
- call: inactive

CG42326 [DRSC06483]
- induced reporter light, run 1, well a: 2.08e5
- induced reporter light, run 1, well b: 1.71e5
- control promoter light, run 1, well a: 2.05e5
- control promoter light, run 1, well b: 2.07e5
- uninduced reporter light, run 1, well a: 15440
- call: inactive

CG42326 [DRSC06484]
- induced reporter light, run 1, well a: 1.55e5
- induced reporter light, run 1, well b: 1.50e5
- control promoter light, run 1, well a: 2.06e5
- control promoter light, run 1, well b: 2.00e5
- uninduced reporter light, run 1, well a: 13085
- call: inactive

CG30060 [DRSC05419]
- induced reporter light, run 1, well a: 2.33e5
- induced reporter light, run 1, well b: 2.12e5
- control promoter light, run 1, well a: 3.01e5
- control promoter light, run 1, well b: 2.81e5
- uninduced reporter light, run 1, well a: 18000
- call: inactive

Zw10 [DRSC18793]
- induced reporter light, run 1, well a: 1.68e5
- induced reporter light, run 1, well b: 1.75e5
- control promoter light, run 1, well a: 2.23e5
- control promoter light, run 1, well b: 2.27e5
- uninduced reporter light, run 1, well a: 10870
- call: inactive

Ccp84Ae [DRSC12590]
- induced reporter light, run 1, well a: 94905
- induced reporter light, run 1, well b: 1.16e5
- control promoter light, run 1, well a: 80745
- control promoter light, run 1, well b: 61130
- uninduced reporter light, run 1, well a: 6728
- call: inactive

Vha26 [DRSC12371]
- induced reporter light, run 1, well a: 82290
- induced reporter light, run 1, well b: 83820
- control promoter light, run 1, well a: 64830
- control promoter light, run 1, well b: 72560
- uninduced reporter light, run 1, well a: 5580
- call: inactive

Dh31-R [DRSC06647]
- induced reporter light, run 1, well a: 67030
- induced reporter light, run 1, well b: 51655
- control promoter light, run 1, well a: 65335
- control promoter light, run 1, well b: 60395
- uninduced reporter light, run 1, well a: 7220
- call: inactive

Dh31-R [DRSC06669]
- induced reporter light, run 1, well a: 82700
- induced reporter light, run 1, well b: 93975
- control promoter light, run 1, well a: 1.32e5
- control promoter light, run 1, well b: 1.27e5
- uninduced reporter light, run 1, well a: 9815
- call: inactive

CG14545 [DRSC14889]
- induced reporter light, run 1, well a: 1.56e5
- induced reporter light, run 1, well b: 1.40e5
- control promoter light, run 1, well a: 2.00e5
- control promoter light, run 1, well b: 1.69e5
- uninduced reporter light, run 1, well a: 11895
- call: inactive

CG40053 (retired record) [DRSC20833]
- induced reporter light, run 1, well a: 1.90e5
- induced reporter light, run 1, well b: 1.90e5
- control promoter light, run 1, well a: 2.76e5
- control promoter light, run 1, well b: 3.18e5
- uninduced reporter light, run 1, well a: 17630
- call: inactive

Laid out differently: entries from further up.
predicted target,DRSC id,"induced reporter light, run 1, well a","induced reporter light, run 1, well b","control promoter light, run 1, well a","control promoter light, run 1, well b","uninduced reporter light, run 1, well a",call
Dh31-R,DRSC06669,82700,93975,1.32e5,1.27e5,9815,inactive
CG14545,DRSC14889,1.56e5,1.40e5,2.00e5,1.69e5,11895,inactive
